About 210 (0.4%) of roughly 52,000 sequences were called active.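 Rule for the calls: active = gene whose silencing raises cell survival under the drug, median off-target-corrected z-score across its silencing RNAs 2 or more; inactive = the rest.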 Some of the results follow.

The assay in a line: Resistance to Poly (ADP-Ribose) Polymerase inhibitor: Gene Identification via Genome-wide siRNA Screen. Particulars: mouse BRCA2 R2336H ES cells, olaparib, CellTiter-Glo viability; active compounds read high. In a few lines: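 Mouse BRCA2 R2336H ES cells were reverse-transfected with siRNA (20 nM final), treated at 48 h with 500 nM olaparib, and read by CellTiter-Glo after 72 h. Scores: MAD-based z per siRNA, median per gene, seed off-target correction.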
On to “GCGGUUAGUGAAAGAAGGATT against 9130017A15Rik”, for which the z-score is inactive: -0.0298.
As to GGAAUUUGACAAACUCAGCTT against Rcn3, the z-score was inactive: 0.337.
Turning to GCCAGUACGAAGUGAUCUGTT against Ccrl1, the z-score is inactive: -2.62.
As to GGUGACGCAGAGGAUCUAUTT against Pmf1, the z-score is inactive: -2.08.
Regarding GGGCCACUGUCGAUAUGAATT against Prr3, the z-score was inactive: 0.165.
As for GCCUGUUAGCGGUUGUUGUTT against Syt10, the figure is inactive: 0.592; as for GGAAUUAUUCCCAAUCCUATT against Cbln1, inactive: 0.916.
With GCUUGCUAGAGUGAUCUCGTT against Adsl, the z-score is inactive: 0.297.
CCCACAGAACCACACAUUCTT against H2-DMa: the z-score is inactive: -0.82.
GGAUUUGGAUUUGUAAGCUTT against Pabpc1: the z-score was inactive: -2.66.
As to GGUUUAGACAGACUUUAGATT against Zbtb9, the z-score was inactive: -0.803.
For the sequence GGACCUUUCCCAAUUCCUUTT against Cyp2e1, the z-score is inactive: 0.782.
Turning to “CCAACUGGCAUUUGAUGUGTT against 5330438E18Rik”, the z-score was inactive: 0.838.
As for GGGUUACUUCAGAUUUUGCTT against Atoh8, the figure is inactive: 0.0396.
In the case of GGACGAAGCUCUGAAACACTT against Fbxl2 it was inactive: -0.169; in that of “GGGAACAUACUUCCUAAAGTT against A330104H05Rik”, inactive: -0.197.
Take CCAUAUGUGAUUUGUCUUGTT against Cacnb2: the z-score is inactive: 0.108.
On to GCAUUUUCUAGAUGGAAGCTT against Hao1, for which the z-score was inactive: 1.17.
With GCACUAACCUAUACAUCUCTT against Sorl1, the z-score is inactive: 0.579.
In the case of CCACAUGAGUGGACCUACGTT against Arid3c it was inactive: -1.38; in that of GCUAGUUUGCCUGAAUAUUTT against Kif27, inactive: 0.21.
On to CCCUGGCUGUCCUCUAUAATT against Ripply1, for which the z-score is inactive: 0.908.
Consider “GGAGGUUAAGAUUCCAGAGTT against 9230112O05Rik”, for which the z-score was inactive: 0.769.
Consider GAGUAUCAUUUCCUGUUUUTT against Olfr389, for which the z-score is inactive: 0.0641.
GGAUAUUUGGAGGACAACCTT against C1s: the z-score is inactive: -0.0211.
With GGGAAAUUUAAAGCCCUCUTT against Olfr1225, the z-score was inactive: -0.986.
For the sequence GGGCAACACAGGACAUCUATT against Amot, the z-score was inactive: -1.41.
In the case of GGUUGAAAAUUUCAAACAGTT against Btg4 it was inactive: 1.76; in that of GGCAUUCUGUGAGACACAATT against Exosc10, inactive: -2.18.
As for GCACAAGUUCGUGCCAGGUTT against Prf1, the figure is inactive: 0.0127.
For GCAAGUUUGAGGAUCUAAATT against Gnai2, the z-score was inactive: -0.212.
For the sequence CCGAGAAAAAGCAGAAAUCTT against Psma2, the z-score is inactive: -3.55.
Regarding CCGAGCGAGACAAAUGGAGTT against Ing1l, the z-score was inactive: -0.536.
As to GGUCAAUGGCCACAAGUUCTT against Prkce, the z-score is inactive: -0.63.
In the case of GCACUGUGACGAUACAAGATT against Asb1 it was inactive: 0.67; in that of GGACAUACCAGAAGAAAUUTT against Sult1d1, inactive: -0.0198.
Turning to CGAUCCUCUUUGUUUAUCUTT against Olfr998, the z-score was inactive: 1.42.
With CCUAUGUCCACCACAAAUGTT against AI447904, the z-score is inactive: 0.126.
CGGUGAUGCGAUAUAAUGUTT against Serpine2: the z-score is inactive: 0.0598.
In the case of CCUACUAUACAAUUCUGCUTT against Clns1a it was inactive: -0.00478; in that of “GCACAAUACUGUGAUCGAATT against B130021E18”, inactive: 0.105.
In the case of GCUUACAAGCUGGUAUCAUTT against LOC333669 it was inactive: -0.358; in that of GGCCAUGAAUGGAAUGUACTT against Slco1a1, inactive: -2.02.
In the case of GGGCUACAGCAUGUAUGAGTT against BC057627 it was active: 2.38; in that of GCAAGUGAAUACCAGAUCCTT against Pcdhac1, inactive: 0.553; in that of “GGUGAACUAGAAAUCAGAUTT against 9330154K18Rik”, inactive: 0.503.
Turning to GGAAUUUCUGUGCAUUAAATT against Astn2, the z-score is inactive: -0.794.
With GCAAGGGAAUGUGUGCCUUTT against Olfr16, the z-score is inactive: 1.1.
As for CCUUCGAAGUGCUAUGGGATT against Apbb1, the figure is inactive: 2.34.
Regarding “GGAGCUCAACAGUGAGAACTT against 4932439K10Rik”, the z-score is inactive: -0.17.
As for GGACUUACAUGGAAUUUUATT against Snrp116, the z-score is inactive: -2.59.
As for GGAUCUUGUAGAGCAAAAUTT against Rnmt, the figure is inactive: 0.609; as for “GCUAGUGGUAAGUCAACCATT against D6Ertd349e”, inactive: -0.584; as for GCGAAUGCUUAAAAUAGCATT against Cdv1, inactive: 0.326.
As for GGUGAUAUUCCUAUCUAAATT against Mbnl1, the z-score was inactive: -0.474.
In the case of GGAUGAUAUGGUAACCUGCTT against Rnf137 it was inactive: 1.2.
In the case of CUAGAAGUGAUGGCUUUCATT against Olfr814, the z-score is inactive: -2.
Take GGCAAAGAAAGGCAAGCCUTT against Cyp3a11: the z-score was inactive: -0.079.
Regarding “GGUGCUGCACAAAUACAUATT against 5630401D24Rik”, the z-score is inactive: 0.876.
For the sequence GGAGGAAGAAACAACAAUGTT against BB146404, the z-score is inactive: -0.439.
In the case of “GGCUAGAAUGCACAUUUUATT against 4930438D12Rik”, the z-score is inactive: 1.39.
As for GCAGGCAUCGUGUUUACCATT against Cdh20, the z-score was inactive: 0.568.
As to GGGUUCCUAAAUAGAAAAUTT against Nanos1, the z-score was inactive: 0.336.
For GGUCACCCAUUUCUUUUGUTT against Olfr361, the z-score was inactive: 0.671.
On to GGCUAUGGCAAGCUAAGCATT against Pex2, for which the z-score was inactive: -1.2.
Consider CGGCAGGAUGAAUGAGAUCTT against Bccip, for which the z-score was inactive: 0.692.
Turning to GGAGAUAACGUACAUCAACTT against Sfrp2, the z-score was inactive: 1.58.
For GCAUCUAUCAAUAAGGAGUTT against Lphn1, the z-score is inactive: -0.442.
In the case of “GGUGGUCUUUUCCCAGCAGTT against D430026P16Rik” it was inactive: 0.206; in that of “CCUAAAUCCUUUUGAACCCTT against D10Ertd641e”, inactive: 0.559.
As to GGAUGGUGUAGCACAUUUCTT against Tulp2, the z-score is inactive: 0.46.
In the case of GGCGAAGCACUCGAAUUUCTT against Slc23a2, the z-score was inactive: 0.832.
As for GCCUUCGUCUCCAAGUAUATT against Plagl1, the z-score was inactive: -1.09.
As for “GGACAAUCAGACCCUGUCATT against 2010315L10Rik”, the z-score is inactive: -2.42.
Consider GGACUCAUAUUCGUAUGUATT against Zfr, for which the z-score is inactive: 0.596.
In the case of GGCUUUUAGCUACCUUGUGTT against AW209491 it was inactive: -0.171.
Consider GGAAAGCUCAAUUGGUUCGTT against Pcnt1, for which the z-score is inactive: -2.86.
With GGGAGAAGAAAAGAAGACATT against Cldn23, the z-score was inactive: -0.34.
For the sequence CGUGCCACUUUUACCGUCCTT against Zdhhc8, the z-score was inactive: 1.71.
On to GGAAGCACUGAUGAAUUAUTT against Phca, for which the z-score was inactive: -1.66.
GGAGCUAGACAAAACUAAATT against AJ543404: the z-score was inactive: 0.44.
As for GGAGAUCUAUAAGGAUAGATT against Flot1, the figure is inactive: -0.608.
Turning to “GGAGGAAAAUGAUGGAGAGTT against 2610022K04Rik”, the z-score was inactive: -0.0281.
For the sequence GCACACCAGCGACAUUCUATT against Aipl1, the z-score is inactive: 1.25.
For CGAUCCAGUAUUCGAAGCATT against Sqstm1, the z-score was inactive: 0.0198.
As for GGAUUGGAUCCGAGACCAATT against Fbxo23, the figure is inactive: 0.0529; as for “GCAGACUCCCAUGUGGAUUTT against 1700067K01Rik”, inactive: -0.242; as for CCUUGAGUGAAAAAGGUUUTT against Top2b, inactive: -0.151.
Regarding GGUUGUGGUAGUCCGCUAUTT against Mrpl2, the z-score is inactive: 0.043.
Consider GGAAUUUUCUUCAUUUGGATT against Pabpc5, for which the z-score is inactive: -0.17.
Turning to GGGCGUGUUAUCAAUGUCUTT against Dhrs9, the z-score was inactive: 0.149.
Regarding GGUACUGCAACUACAUGAUTT against Rnase12, the z-score is inactive: 2.77.
For the sequence CCUUUAUGAAUGAACAGGGTT against Cnot7, the z-score is inactive: 0.267.
Turning to UCUUUGUGGUAGCCAUCCUTT against Olfr129, the z-score is inactive: -1.14.
As to “GGCCAUUUCCAGCUUGAGUTT against 4930457P18Rik”, the z-score was inactive: -1.06.
As to CCAAGAUCUAUGGAGGACGTT against Rps19, the z-score is inactive: -1.98.
For the sequence “GCCUUUGUACAAUGACUAUTT against 2410002M20Rik”, the z-score was inactive: -0.17.
In the case of “GGAAUUUGCUACGAAUCUCTT against 2410127E16Rik” it was inactive: 0.45; in that of CCCUAUCCUGUUCAUCUCUTT against Gpr50, inactive: 1.18; in that of GCAUCCAUCAAAUCAAAAUTT against Met, inactive: 0.976.
As for GGAAUUUUGACAGAAAACCTT against Cradd, the figure is inactive: -0.599; as for “GGAGAUUCUAAAGACAGAGTT against 4931408L03Rik”, inactive: -0.33; as for CGAUAACAGCUGUUAACGUTT against Mttp, inactive: 0.596.
In the case of GGAGAUCCCAACCACGGAUTT against Otor it was inactive: 0.144.

For the origin of these results see PubChem BioAssay AID1347423 (Functional Genomics Laboratory (NCATS/FGL), 2020).
